From patent EP1792623B1, “Use of extracts and constituents of leontopodium as enhancers of cholinergic function” (Leopold-Franzens-Universität Innsbruck, priority 2005, dated 2007)

Tested on: acetylcholinesterase
Format: biochemical
Details: 100 µM, after 60 min, n=4; medium control 16477 ± 2759 (part A), 13513 ± 3007 (part B)
Protocol: Experiments are carried out applying Ellman's method in a 96-well microplate assay described by Ingkaninan et al, Journal of Chromatography A 827 (2000) p. 6173 and Rhee et al, Journal of Chromatography A 915 (2001) p. 217-223. In addition to buffer A described above, a buffer containing 0.1 M NaCl and 0.02 M MgClx2.6 H2O in buffer A is used for preparing a 3 mM solution of DTNB. For the microplate assay the substrate ATCI is dissolved 15 mM in water (HPLC grade). The enzyme stock solution is diluted with buffer A to get 0.22 U/ml. In the 96-well plates, 25 µl of 15 mM ATCl, 125 µl of 3 mM DTNB, 50 µl of buffer A, and 25 µl of sample (10 mM in MeOH, respectively DMSO (dimethylsulfoxide), diluted ten times with buffer A) are added. […] […] The absorbance of the product (2-nitrobenzoate-5-mercapto thioline) is measured at 405 nm with a Chameleon 5025 (Hidex, Finland) microplate reader 0, 15, 30, 45 and 60 minutes after adding 25 µl of 0.22 U/ml acetylcholinesterase-solution to the reaction mixture. All experiments are performed 4 times (n=4) and the data are statistically processed using the SPSS 11.5 program package. Percentage of inhibition is calculated by comparing the rates for the sample to the blank (10% MeOH, resp. DMSO, in buffer).

Row | Compound | absorption x 10^5 (mean ± sd)
1 | C/C=C(/C)C(=O)OC[C@H]1[C@@H](Cc2cc(OC)c(OC)c(OC)c2)CO[C@@H]1c1cc(OC)c(OC)c(OC)c1 [[(2S,3R,4R)-4-(3,4,5-trimethoxy-benzyl)-2-(3,4,5-trimethoxy-phenyl)tetrahydrofuran-3-yl]methyl-(2Z)-2-methylbut-2-en-oate] | 14328 ± 2805
2 | (4a,7b,8a,9b,15a)-7,9-dihydroxy-15-{[(2Z)-2-methylbut-2-enoyl]oxy} kaur-16-en-19-oate | 6241 ± 1352
3 | C=C(CO)[C@H]1Oc2ccc(C(C)=O)cc2[C@H]1O[C@@H]1O[C@H](CO)[C@@H](O)[C@H](O)[C@H]1O (relative stereo) [1-{(2R*,3R*)-2-[1-(hydroxymethyl)vinyl]-3-(β-D-gluco-pyranosyloxy)-2,3-dihydro-1-benzofuran-5-yl}-ethanone] | 16496 ± 2091
4 | 15-acetoxy-modhephene | 5891 ± 1237
5 | C=C(C)C1COc2cc3oc(=O)ccc3c(O)c2O1 (stereo not drawn) [5-hydroxy-obliquin] | 16085 ± 2083
6 | CC1=C[C@@H]2[C@@H](CC1)[C@@](C)(O)CC[C@H]2C(C)C [t-Cadinol] | 14720 ± 1917
7 | bisabolan E | 5811 ± 1238
8 | C[C@@H]1CC[C@@H]2C(C)(C)C[C@]3(C)CC=C[C@]123 [silphinene] | 13024 ± 2561
9 | C/C=C(/C)C(=O)OC[C@H]1[C@@H](Cc2ccc(OC)c(OC)c2)CO[C@@H]1c1cc(OC)c(OC)c(OC)c1 [[(2S,3R,4R)-4-(3,4-dimethoxy-benzyl)-2-(3,4,5-trimethoxy-phenyl)tetrahydrofuran-3-yl]methyl-(2Z)-2-methylbut-2-en-oate] | 12842 ± 2984
10 | 1-acetyloxy-3-angeloyloxy-(4E,6E)-tetradeca-4,6-dien-8,10,12-triyne and the 4E,6Z isomer | 11293 ± 2558
11 | C/C=C(/C)C(=O)OC[C@H]1[C@@H](Cc2ccc(OC)c(OC)c2)CO[C@@H]1c1ccc(OC)c(OC)c1 [[(2S,3R,4R)-4-(3,4-dimethoxy-benzyl)-2-(3,4-dimethoxy-phenyl)tetrahydrofuran-3-yl]methyl-(2Z)-2-methylbut-2-en-oate] | 13581 ± 2096
12 | β -isocomene | 7958 ± 1539
13 | ent-kaur-16-enic-19-acid | 10559 ± 1391
14 | isocomene | 8063 ± 1344
15 | bisabolan A | 12599 ± 1728
16 | C=C(C)C1COc2cc3oc(=O)ccc3c(OC)c2O1 (stereo not drawn) [5-methoxy-obliquin] | 15856 ± 2143
17 | C=C(C)C1COc2cc3oc(=O)ccc3cc2O1 (stereo not drawn) [obliquine] | 13450 ± 1956
18 | CC(=O)OCC1=C[C@]2(C)CCC3[C@H](C)CCC32C1C (relative stereo) [[(1R*,3aS,6R)-1,3a,6-trimethyl-1,3a,4,5,5a,6,7,8-octahydrocyclo-penta[c]pentalen-2-yl]methylacetat] | 6288 ± 937
